Assay results published in patent US8268961B2, “Antibacterial peptides and analogues thereof” (Universita Degli Studi di Siena, priority 2004, dated 2012).
Some entries share one result that the patent states for a list of compounds. Positions of bridges follow the written chain, without caps; N, C: chain ends. Chains are numbered I, II in the order given. No end group written: not given here.

System: E. coli strain TG1
Assay: Test of antibacterial activity (colony growth inhibition) on E. coli strain TG1
Format: cell-based
Conditions: E. coli TG1, MAP form
Method: The antimicrobic activity of the peptides in linear form (L1, L4, L5, L6) and in MAP form (M1, M4, M5, M6) was assayed on the TG1 strain of E. coli. The peptides were incubated at various concentrations (2-1-0.5-0.25-0.12 mg/ml) with cells of E. coli (OD600=0.2) for about 1 hour at 37° C. Subsequently, the cells were plated on agar at dilution such to allow counting of individual colonies. The antimicrobic activity of the synthesised peptide L 1 and M1 is shown FIG. 1 and is compared to a non correlated MAP peptide (MNC) used as negative control.
In one example, the tetrabranched MAP peptides with the amino acid sequence: QAKIRVRLSA [SEQ ID NO: 2], KIRVRLSA [SEQ ID NO: 3], QKKIRVRLSA [SEQ ID NO: 4] are used individually in a bacterial colony growth inhibition test. The test is conducted by incubating different concentrations of MAP peptides with E. coli (strain TG1) and plating bacterial cells on agar at a dilution such to allow for individual colonies counting. The following day, the number of colonies grown after treatment with the three MAP peptides is compared.
Antimicrobic tests were conducted incubating for 75 min at 37° C., 25 μL of E. coli at the OD600 of 0.2 with 25 μl of MAP peptide dissolved in PBS at the various concentrations. […] The plates were left overnight at 30° C. and the individual grown colonies were counted and compared with a control, not treated with MAP peptide.

## I: QKKIRVRLSAKKA-OH / II: QKKIRVRLSAK / III: QKKIRVRLSA / IV: QKKIRVRLSA (amide I:11-IV:C, I:12-II:C, II:11-III:C) [M6, QKKIRVRLSA]
  Concentration down to which TG1 E. coli colony growth is prevented: ≤ 6.25 µg/mL
